# Reference: patent US20200231562A1, “NOVEL MACROLIDE ANTIBIOTICS” (HELMHOLTZ-ZENTRUM FÜR INFEKTIONSFORSCHUNG GMBH, priority 2014, published 2020)
# At least one compound was matched to its structure with a doubt left.
# Tested on: Disciformycin A-resistant S. aureus N315 mutants
# Assay: Cross-resistance of Disciformycin A-resistant mutants
# Assay type: cell-based
# Conditions: all Disciformycin A-resistant mutants
smiles,measurement,value
"CO[C@H]1/C=C/O[C@@]2(C)Oc3c(C)c(O)c4c(O)c(c(/C=N/N5CCN(C)CC5)c(O)c4c3C2=O)NC(=O)/C(C)=C\C=C\[C@H](C)[C@H](O)[C@@H](C)[C@@H](O)[C@@H](C)[C@H](OC(C)=O)[C@@H]1C [rifampicin, reference compound]",cross-resistance of Disciformycin A-resistant mutants,no cross-resistance
